# Results from PMC6830812.
# Sequences of proteins named here, by UniProt entry; tags and fusion partners are left off. Residues count along the entry.
# UniProt P38113: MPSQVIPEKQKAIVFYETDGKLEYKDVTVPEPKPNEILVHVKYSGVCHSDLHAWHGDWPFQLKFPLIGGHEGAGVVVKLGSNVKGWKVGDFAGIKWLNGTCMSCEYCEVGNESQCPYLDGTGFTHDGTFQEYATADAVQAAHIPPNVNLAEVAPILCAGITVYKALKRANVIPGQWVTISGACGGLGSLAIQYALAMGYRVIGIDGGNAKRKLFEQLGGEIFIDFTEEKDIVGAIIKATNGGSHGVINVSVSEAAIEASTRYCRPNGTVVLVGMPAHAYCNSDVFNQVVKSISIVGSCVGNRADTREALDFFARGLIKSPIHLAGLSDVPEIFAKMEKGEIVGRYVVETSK
# UniProt O82647: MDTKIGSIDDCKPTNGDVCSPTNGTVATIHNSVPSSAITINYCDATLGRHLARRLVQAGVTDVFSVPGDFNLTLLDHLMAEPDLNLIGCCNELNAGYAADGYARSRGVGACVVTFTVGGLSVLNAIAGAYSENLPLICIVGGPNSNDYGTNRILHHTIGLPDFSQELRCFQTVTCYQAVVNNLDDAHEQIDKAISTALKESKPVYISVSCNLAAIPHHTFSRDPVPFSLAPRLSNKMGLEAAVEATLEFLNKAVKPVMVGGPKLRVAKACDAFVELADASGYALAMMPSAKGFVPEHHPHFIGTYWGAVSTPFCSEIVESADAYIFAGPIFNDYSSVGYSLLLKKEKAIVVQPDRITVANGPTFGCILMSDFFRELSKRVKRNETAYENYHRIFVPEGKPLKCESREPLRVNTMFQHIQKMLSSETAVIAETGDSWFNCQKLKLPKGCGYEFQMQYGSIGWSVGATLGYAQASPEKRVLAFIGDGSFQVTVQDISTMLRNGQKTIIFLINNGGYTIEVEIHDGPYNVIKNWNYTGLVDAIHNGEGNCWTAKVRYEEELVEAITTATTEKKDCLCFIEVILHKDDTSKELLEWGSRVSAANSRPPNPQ
# UniProt P07246, residues 25-375: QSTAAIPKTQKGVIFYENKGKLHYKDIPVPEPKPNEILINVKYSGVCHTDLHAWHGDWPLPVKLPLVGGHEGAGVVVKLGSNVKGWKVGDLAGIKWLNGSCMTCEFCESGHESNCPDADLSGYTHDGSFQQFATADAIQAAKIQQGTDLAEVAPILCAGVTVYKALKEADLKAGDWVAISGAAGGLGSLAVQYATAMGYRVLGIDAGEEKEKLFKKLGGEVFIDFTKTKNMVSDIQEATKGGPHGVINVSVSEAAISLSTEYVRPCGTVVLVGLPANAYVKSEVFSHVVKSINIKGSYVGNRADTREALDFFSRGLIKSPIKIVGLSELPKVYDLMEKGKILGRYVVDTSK
# These are yes or no findings as the source states them, for the method shown. For part of these data: In cells and extracts the contact can be indirect. Some results given as binding are weak or reduced against the parent protein; the word gives no strength. For part of these data: Tags and fused reporters may be left off the sequences shown.
# T1: TBSV p33 replication protein (MYTH bait) (tomato bushy stunt virus (TBSV)) (UniProt P15962)
# T1 sequence: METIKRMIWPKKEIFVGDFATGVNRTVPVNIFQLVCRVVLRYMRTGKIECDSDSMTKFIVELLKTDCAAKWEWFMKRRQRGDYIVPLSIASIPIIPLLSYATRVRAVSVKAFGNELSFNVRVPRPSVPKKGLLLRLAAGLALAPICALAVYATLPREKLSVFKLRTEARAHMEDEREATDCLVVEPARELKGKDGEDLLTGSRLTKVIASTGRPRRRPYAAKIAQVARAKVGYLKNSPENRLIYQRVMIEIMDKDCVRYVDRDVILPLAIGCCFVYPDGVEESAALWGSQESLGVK
# T2: TBSV p33-cYFP (tomato bushy stunt virus (TBSV)) (UniProt P15962)
# T2 sequence: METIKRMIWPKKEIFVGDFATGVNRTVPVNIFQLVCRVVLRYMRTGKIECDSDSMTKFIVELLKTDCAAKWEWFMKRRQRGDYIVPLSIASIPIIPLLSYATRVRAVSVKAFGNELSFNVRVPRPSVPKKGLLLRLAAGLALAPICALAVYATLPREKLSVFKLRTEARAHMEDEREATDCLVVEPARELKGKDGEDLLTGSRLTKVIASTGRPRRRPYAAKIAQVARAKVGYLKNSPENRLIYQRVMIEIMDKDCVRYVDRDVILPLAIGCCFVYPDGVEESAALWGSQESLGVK
# T3: TBSV p33-Flag replication protein (expressed in N. benthamiana) (tomato bushy stunt virus (TBSV)) (UniProt P15962)
# T3 sequence: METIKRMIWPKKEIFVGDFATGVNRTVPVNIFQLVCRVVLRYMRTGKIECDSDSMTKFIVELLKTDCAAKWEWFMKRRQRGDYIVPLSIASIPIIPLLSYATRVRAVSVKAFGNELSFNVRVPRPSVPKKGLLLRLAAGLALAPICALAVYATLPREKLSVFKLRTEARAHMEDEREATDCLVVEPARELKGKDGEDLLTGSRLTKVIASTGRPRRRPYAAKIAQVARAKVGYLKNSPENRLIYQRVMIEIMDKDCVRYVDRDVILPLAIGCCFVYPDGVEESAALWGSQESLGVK
# T4: TBSV Flag-p33 replication protein (tomato bushy stunt virus (TBSV)) (UniProt P15962)
# T4 sequence: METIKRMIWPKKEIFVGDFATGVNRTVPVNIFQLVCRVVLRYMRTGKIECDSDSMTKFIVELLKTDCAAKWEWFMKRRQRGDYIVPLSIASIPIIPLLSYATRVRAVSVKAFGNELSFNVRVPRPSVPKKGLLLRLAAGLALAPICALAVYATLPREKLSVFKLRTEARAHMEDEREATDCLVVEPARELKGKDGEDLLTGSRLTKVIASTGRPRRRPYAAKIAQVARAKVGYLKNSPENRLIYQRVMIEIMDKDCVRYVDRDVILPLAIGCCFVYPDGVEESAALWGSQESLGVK
# Target: T1, TBSV p33 replication protein (MYTH bait) (tomato bushy stunt virus (TBSV))
# Test: two-hybrid; split ubiquitin-based membrane yeast two-hybrid (MYTH); bait p33 co-expressed with the prey proteins in yeast; empty prey vector (NubG) as negative control
row,Molecule,binding
1,yeast Adh5p alcohol dehydrogenase (MYTH prey) (from UniProt P38113 1-351) (enzyme),binds
2,Arabidopsis AtPdc1 (MYTH prey) (from UniProt O82647 1-607) (enzyme),binds
3,yeast Adh3p alcohol dehydrogenase (MYTH prey) (from UniProt P07246 25-375) (enzyme),binds
4,"yeast Adh4p alcohol dehydrogenase (MYTH prey) (enzyme, UniProt P10127 1-382) MSSVTGFYIPPISFFGEGALEETADYIKNKDYKKALIVTDPGIAAIGLSGRVQKMLEERDLNVAIYDKTQPNPNIANVTAGLKVLKEQNSEIVVSIGGGSAHDNAKAIALLATNGGEIGDYEGVNQSKKAALPLFAINTTAGTASEMTRFTIISNEEKKIKMAIIDNNVTPAVAVNDPSTMFGLPPALTAATGLDALTHCIEAYVSTASNPITDACALKGIDLINESLVAAYKDGKDKKARTDMCYAEYLAGMAFNNASLGYVHALAHQLGGFYHLPHGVCNAVLLPHVQEANMQCPKAKKRLGEIALHFGASQEDPEETIKALHVLNRTMNIPRNLKELGVKTEDFEILAEHAMHDACHLTNPVQFTKEQVVAIIKKAYEY",binds
5,"yeast Adh2p alcohol dehydrogenase (MYTH prey) (enzyme, UniProt P00331 1-348) MSIPETQKAIIFYESNGKLEHKDIPVPKPKPNELLINVKYSGVCHTDLHAWHGDWPLPTKLPLVGGHEGAGVVVGMGENVKGWKIGDYAGIKWLNGSCMACEYCELGNESNCPHADLSGYTHDGSFQEYATADAVQAAHIPQGTDLAEVAPILCAGITVYKALKSANLRAGHWAAISGAAGGLGSLAVQYAKAMGYRVLGIDGGPGKEELFTSLGGEVFIDFTKEKDIVSAVVKATNGGAHGIINVSVSEAAIEASTRYCRANGTVVLVGLPAGAKCSSDVFNHVVKSISIVGSYVGNRADTREALDFFARGLVKSPIKVVGLSSLPEIYEKMEKGQIAGRYVVDTSK",binds
6,"Arabidopsis AtAdh1 (MYTH prey) (enzyme, UniProt P06525 1-379) MSTTGQIIRCKAAVAWEAGKPLVIEEVEVAPPQKHEVRIKILFTSLCHTDVYFWEAKGQTPLFPRIFGHEAGGIVESVGEGVTDLQPGDHVLPIFTGECGECRHCHSEESNMCDLLRINTERGGMIHDGESRFSINGKPIYHFLGTSTFSEYTVVHSGQVAKINPDAPLDKVCIVSCGLSTGLGATLNVAKPKKGQSVAIFGLGAVGLGAAEGARIAGASRIIGVDFNSKRFDQAKEFGVTECVNPKDHDKPIQQVIAEMTDGGVDRSVECTGSVQAMIQAFECVHDGWGVAVLVGVPSKDDAFKTHPMNFLNERTLKGTFFGNYKPKTDIPGVVEKYMNKELELEKFITHTVPFSEINKAFDYMLKGESIRCIITMGA",binds
7,"yeast Pdc1p pyruvate decarboxylase (MYTH prey) (enzyme, UniProt P06169 1-563) MSEITLGKYLFERLKQVNVNTVFGLPGDFNLSLLDKIYEVEGMRWAGNANELNAAYAADGYARIKGMSCIITTFGVGELSALNGIAGSYAEHVGVLHVVGVPSISAQAKQLLLHHTLGNGDFTVFHRMSANISETTAMITDIATAPAEIDRCIRTTYVTQRPVYLGLPANLVDLNVPAKLLQTPIDMSLKPNDAESEKEVIDTILALVKDAKNPVILADACCSRHDVKAETKKLIDLTQFPAFVTPMGKGSIDEQHPRYGGVYVGTLSKPEVKEAVESADLILSVGALLSDFNTGSFSYSYKTKNIVEFHSDHMKIRNATFPGVQMKFVLQKLLTTIADAAKGYKPVAVPARTPANAAVPASTPLKQEWMWNQLGNFLQEGDVVIAETGTSAFGINQTTFPNNTYGISQVLWGSIGFTTGATLGAAFAAEEIDPKKRVILFIGDGSLQLTVQEISTMIRWGLKPYLFVLNNDGYTIEKLIHGPKAQYNEIQGWDHLSLLPTFGAKDYETHRVATTGEWDKLTQDKSFNDNSKIRMIEIMLPVFDAPQNLVEQAKLTAATNAKQ",binds
8,"yeast Adh1p alcohol dehydrogenase (MYTH prey) (enzyme, UniProt P00330 1-348) MSIPETQKGVIFYESHGKLEYKDIPVPKPKANELLINVKYSGVCHTDLHAWHGDWPLPVKLPLVGGHEGAGVVVGMGENVKGWKIGDYAGIKWLNGSCMACEYCELGNESNCPHADLSGYTHDGSFQQYATADAVQAAHIPQGTDLAQVAPILCAGITVYKALKSANLMAGHWVAISGAAGGLGSLAVQYAKAMGYRVLGIDGGEGKEELFRSIGGEVFIDFTKEKDIVGAVLKATDGGAHGVINVSVSEAAIEASTRYVRANGTTVLVGMPAGAKCCSDVFNQVVKSISIVGSYVGNRADTREALDFFARGLVKSPIKVVGLSTLPEIYEKMEKGQIVGRYVVDTSK",binds

# Target: T2, TBSV p33-cYFP (tomato bushy stunt virus (TBSV))
# Test: split reporter; BiFC in N. benthamiana leaves; cYFP-tagged replication proteins and nYFP-tagged host proteins expressed via agroinfiltration; confocal microscopy with peroxisomal or mitochondrial markers
row,Molecule,binding
1,nYFP-AtPdc1 (from UniProt O82647 1-607) (enzyme),binds

# Target: T2, TBSV p33-cYFP (tomato bushy stunt virus (TBSV))
# Test: as above
# Remark: another data set of the same source
row,Molecule,binding
1,"nYFP-AtAdh1 (enzyme, UniProt P06525 1-379) MSTTGQIIRCKAAVAWEAGKPLVIEEVEVAPPQKHEVRIKILFTSLCHTDVYFWEAKGQTPLFPRIFGHEAGGIVESVGEGVTDLQPGDHVLPIFTGECGECRHCHSEESNMCDLLRINTERGGMIHDGESRFSINGKPIYHFLGTSTFSEYTVVHSGQVAKINPDAPLDKVCIVSCGLSTGLGATLNVAKPKKGQSVAIFGLGAVGLGAAEGARIAGASRIIGVDFNSKRFDQAKEFGVTECVNPKDHDKPIQQVIAEMTDGGVDRSVECTGSVQAMIQAFECVHDGWGVAVLVGVPSKDDAFKTHPMNFLNERTLKGTFFGNYKPKTDIPGVVEKYMNKELELEKFITHTVPFSEINKAFDYMLKGESIRCIITMGA",binds

# Target: T3, TBSV p33-Flag replication protein (expressed in N. benthamiana) (tomato bushy stunt virus (TBSV))
# Test: co-IP; co-purification from agroinfiltrated N. benthamiana leaves (2.5 days); PPEB buffer with 0.5% Triton X-100, 150 mM NaCl, pH 7.5; anti-FLAG M2 affinity agarose, 2 h at 4 C; detection with anti-HA antibody
row,Molecule,binding
1,HA-AtPdc1 (expressed in N. benthamiana) (from UniProt O82647 1-607) (enzyme),binds

# Target: T4, TBSV Flag-p33 replication protein (tomato bushy stunt virus (TBSV))
# Test: co-IP; Flag-affinity purification of the Flag-tagged replication proteins from the detergent-solubilized membrane fraction of yeast; samples cross-linked with formaldehyde in intact yeast cells; co-purified His6-tagged proteins detected with anti-His antibody; in Fig 2I samples taken 0, 1 h and 2.5 h after cycloheximide (100 ug/ml)
row,Molecule,binding
1,Arabidopsis His6-AtPdc1 (expressed in yeast) (from UniProt O82647 1-607) (enzyme),binds
2,yeast His6-Pdc1^S455F mutant (from UniProt P06169 1-563) (enzyme),binds
3,yeast His6-Adh3p (from UniProt P07246 25-375) (enzyme),binds

# Target: T4, TBSV Flag-p33 replication protein (tomato bushy stunt virus (TBSV))
# Test: as above
# Remark: another data set of the same source
row,Molecule,binding
1,"yeast His6-Adh2p (enzyme, UniProt P00331 1-348) MSIPETQKAIIFYESNGKLEHKDIPVPKPKPNELLINVKYSGVCHTDLHAWHGDWPLPTKLPLVGGHEGAGVVVGMGENVKGWKIGDYAGIKWLNGSCMACEYCELGNESNCPHADLSGYTHDGSFQEYATADAVQAAHIPQGTDLAEVAPILCAGITVYKALKSANLRAGHWAAISGAAGGLGSLAVQYAKAMGYRVLGIDGGPGKEELFTSLGGEVFIDFTKEKDIVSAVVKATNGGAHGIINVSVSEAAIEASTRYCRANGTVVLVGLPAGAKCSSDVFNHVVKSISIVGSYVGNRADTREALDFFARGLVKSPIKVVGLSSLPEIYEKMEKGQIAGRYVVDTSK",binds
2,"His6-AtAdh1 (expressed in yeast) (enzyme, UniProt P06525 1-379) MSTTGQIIRCKAAVAWEAGKPLVIEEVEVAPPQKHEVRIKILFTSLCHTDVYFWEAKGQTPLFPRIFGHEAGGIVESVGEGVTDLQPGDHVLPIFTGECGECRHCHSEESNMCDLLRINTERGGMIHDGESRFSINGKPIYHFLGTSTFSEYTVVHSGQVAKINPDAPLDKVCIVSCGLSTGLGATLNVAKPKKGQSVAIFGLGAVGLGAAEGARIAGASRIIGVDFNSKRFDQAKEFGVTECVNPKDHDKPIQQVIAEMTDGGVDRSVECTGSVQAMIQAFECVHDGWGVAVLVGVPSKDDAFKTHPMNFLNERTLKGTFFGNYKPKTDIPGVVEKYMNKELELEKFITHTVPFSEINKAFDYMLKGESIRCIITMGA",binds
3,"yeast His6-Pdc1p (enzyme, UniProt P06169 1-563) MSEITLGKYLFERLKQVNVNTVFGLPGDFNLSLLDKIYEVEGMRWAGNANELNAAYAADGYARIKGMSCIITTFGVGELSALNGIAGSYAEHVGVLHVVGVPSISAQAKQLLLHHTLGNGDFTVFHRMSANISETTAMITDIATAPAEIDRCIRTTYVTQRPVYLGLPANLVDLNVPAKLLQTPIDMSLKPNDAESEKEVIDTILALVKDAKNPVILADACCSRHDVKAETKKLIDLTQFPAFVTPMGKGSIDEQHPRYGGVYVGTLSKPEVKEAVESADLILSVGALLSDFNTGSFSYSYKTKNIVEFHSDHMKIRNATFPGVQMKFVLQKLLTTIADAAKGYKPVAVPARTPANAAVPASTPLKQEWMWNQLGNFLQEGDVVIAETGTSAFGINQTTFPNNTYGISQVLWGSIGFTTGATLGAAFAAEEIDPKKRVILFIGDGSLQLTVQEISTMIRWGLKPYLFVLNNDGYTIEKLIHGPKAQYNEIQGWDHLSLLPTFGAKDYETHRVATTGEWDKLTQDKSFNDNSKIRMIEIMLPVFDAPQNLVEQAKLTAATNAKQ",binds
4,"yeast His6-Adh1p (enzyme, UniProt P00330 1-348) MSIPETQKGVIFYESHGKLEYKDIPVPKPKANELLINVKYSGVCHTDLHAWHGDWPLPVKLPLVGGHEGAGVVVGMGENVKGWKIGDYAGIKWLNGSCMACEYCELGNESNCPHADLSGYTHDGSFQQYATADAVQAAHIPQGTDLAQVAPILCAGITVYKALKSANLMAGHWVAISGAAGGLGSLAVQYAKAMGYRVLGIDGGEGKEELFRSIGGEVFIDFTKEKDIVGAVLKATDGGAHGVINVSVSEAAIEASTRYVRANGTTVLVGMPAGAKCCSDVFNQVVKSISIVGSYVGNRADTREALDFFARGLVKSPIKVVGLSTLPEIYEKMEKGQIVGRYVVDTSK",binds
